Patent US11884647B2, “Compounds and methods for targeting pathogenic blood vessels” (THE REGENTS OF THE UNIVERSITY OF CALIFORNIA, priority 2019, dated 2024)
At least one read-out could not be matched to a standard name with certainty.

What follows are molecules tested on tumor endothelial cells (LL/2 lung cancer tumor) (assay: Lung LL2 ex vivo model of tumor angiogenesis). Conditions: Conc. 10 μm.
Type: cell-based, mouse
Description: This example describes a procedure to prepare a primary tumor angiogenesis model for assessing the efficacy of anti-cancer candidate agents.
1. The day before the experiment, spray all necessary tools with 70% ethanol and sterilize them under UV light overnight, including blade, dissecting and micro-dissecting scissors and […]. Place 24-well dishes at 4° C. to pre-chill plates and thaw Matrigel 24 hours before tumor dissection.
2. Spray 70% ethanol on working bench. Prepare two sterile petri dishes with 10 mL sterile PBS. Steps 3 and 4 are for mouse tumor models. For fresh human tumor, directly go to step 5.
3. Euthanize the tumor-bearing mice. Spray 70% ethanol on the mouse and remove the tumor using sterilized dissecting tools (avoid the fur). Rinse the tumor in petri dish with sterile PBS to remove ethanol and fur. Transfer the tumor to a new petri dish with PBS for dissection. Place the dish on ice.
4. Using pre-chilled sterile pipet tips to seed regular Matrigel in 24 well plates on ice. Matrigel (30 μL) is dropped in the middle of each well without touching the edge of the well (avoid introducing bubbles if possible).
5. Cut the tumor in halves using the sterile blade. Identify and isolate healthy tumor tissue that is not necrotic and is within the tumor capsule. Cut the healthy tumor tissue into small pieces. For instance, a suitable size for the tumor tissue is 0.5 mm (H)×0.5 mm (L)×0.3 mm (D) with a total volume of 0.075 mm^3.
6. Gently transfer and embed each tumor piece in the Matrigel drop in the 24-well plate. Place the embedded piece in the bottom and middle of each Matrigel drop. Keep the plate on ice all the time.
7. After seeding the tumor pieces, plates are incubated in a 37° C. cell culture incubator without medium for 10 minutes in order for the Matrigel to solidify.
8. Endothelial Growth Medium (0.5 mL) is added to each well and incubated at 37° C. with 5% CO2. Wait until the new endothelial cells have grown out of the tumor or are larger than 3 mm in diameter until treatment. This usually takes 4 days for the LL2 Lewis lung cancer model and 7 days for the CT26 colon cancer model. For human tumor models, the growth time is typically 2-3 weeks, depending on the tumor type. Media is changed every 4 days during prolonged culture. Typically, when the tumor tissue grows to 2 mm in diameter, it is good for drug testing. A size of about 3 mm in diameter can make visualization easier.
9. When the assay is ready to be analyzed for cell death (e.g., 48 hours after drug addition), prepare the dye mixture by mixing 6 μL of green dye to stain live cells (5 mg/mL Fluorescein diacetate or FDA in DMSO) with 30 μL of red dye (2.5 mg/mL Propidium iodide or PI in PBS) to stain dead cells in an Eppendorf tube. The FDA dye needs to be stored frozen in a −20° C. freezer because it has a labile ester bond.
10. Add 1 μL of the dye mixture to each well of the 24-well dish. It is usually performed one 24-well dish at a time given the amount of time needed to take pictures (the green dye is not as stable in the cells in the long term).
11. Gently rock the dish a few times to mix the dye with the media in the wells and incubate the dish at 37° C. for 10 min (too long incubation can make the green signal too intense).
12. Wash each well with 0.5 mL of sterile PBS and then add 0.5 mL of phenol red free SFM to each well. Alternatively 0.5 mL of regular Endothelial Cell Growth Media can be added to each well if this well needs to be continuously maintained after the experiment.
13. Look through all wells on an inverted microscope using the 2× objective lens to observe morphological changes.
14. Taking pictures in the red and green channels would allow not only the recording of the result but also more accurate quantitation of the result. To take pictures for all the wells, first pick a well that has robust red and green signals. […]

Compound	48 hrs (morphology observations after 48 hours)
CCOC(=O)c1ccc2ncc(S(=O)(=O)c3ccc(OC)cc3)c(-n3cncn3)c2c1 [compound 183, ethyl 3-((4-methoxyphenyl)sulfonyl)-4-(1H-1,2,4-triazol-1-yl)quinoline-6-carboxylate]	**** (100% of endothelial cells vesicularize in cell shape and look flattened in morphology (indicating disintegration of the cell body))
CCCCOc1ccc(S(=O)(=O)c2cnc3ccc(C(=O)OCC)cc3c2-n2cnnn2)cc1 [compound 186, ethyl 3-((4-butoxyphenyl)sulfonyl)-4-(1H-tetrazol-1-yl)quinoline-6-carboxylate]	**** (100% of endothelial cells vesicularize in cell shape and look flattened in morphology (indicating disintegration of the cell body))
CCCCCCCCCCOc1ccc(S(=O)(=O)c2cnc3ccc([S+](C)[O-])cc3c2N2CCC(N3CCCC(O)C3)CC2)cc1 (stereo not drawn) [compound 265, 1′-(3-((4-(decyloxy)phenyl)sulfonyl)-6-(methylsulfinyl)quinolin-4-yl)-[1,4′-bipiperidin]-3-ol]	* (50% or less of cells vesicularize in cell shape)

Same assay, conditions: Conc. 20 μm

Compound	48 hrs (morphology observations after 48 hours)
CCOC(=O)c1ccc2ncc(S(=O)(=O)c3ccc(CC)cc3)c(-n3nnc4ccccc43)c2c1 [compound 133, ethyl 4-(1H-benzo[d][1,2,3]triazol-1-yl)-3-((4-ethylphenyl)sulfonyl)quinoline-6-carboxylate]	** (more than 50% but less than 100% of endothelial cells vesicularize in cell shape)
CCCCCCCCCCCCCCCCOc1ccc(S(=O)(=O)c2cnc3ccc([S+](C)[O-])cc3c2N2CCC(N3CCC(N4CCCC(O)C4)CC3)CC2)cc1 (stereo not drawn) [compound 378, 1″-(3-((4-(hexadecyloxy)phenyl)sulfonyl)-6-(methylsulfinyl)quinolin-4-yl)-[1,4′:1′,4″- terpiperidin]-3-ol]	*** (100% of endothelial cells vesicularize in cell shape)
CCCCCCCCCCCCOc1ccc(S(=O)(=O)c2cnc3ccc([S+](C)[O-])cc3c2N2CCC(N3CCN(CCO)CC3)CC2)cc1F (stereo not drawn) [compound 362, 2-(4-(1-(3-((4-(dodecyloxy)-3-fluorophenyl)sulfonyl)-6-(methylsulfinyl)quinolin-4-yl)piperidin-4-yl)piperazin-1-yl)ethanol]	*** (100% of endothelial cells vesicularize in cell shape)
CCCCCCCOc1ccc(S(=O)(=O)c2cnc3ccc(SC)cc3c2N2CCC(N3CCCN(C)CC3)CC2)cc1 [compound 249, 3-((4-(heptyloxy)phenyl)sulfonyl)-4-(4-(4-methyl-1,4-diazepan-1-yl)piperidin-1-yl)-6-(methylthio)quinoline]	*** (100% of endothelial cells vesicularize in cell shape)
CCCCCCCOc1ccc(S(=O)(=O)c2cnc3ccc(SC)cc3c2N2CCC(N3CCC(N4CCCCC4)CC3)CC2)cc1 [compound 251, 4-([1,4′:1′,4″-terpiperidin]-1″-yl)-3-((4-(heptyloxy)phenyl)sulfonyl)-6-(methylthio)quinoline]	*** (100% of endothelial cells vesicularize in cell shape)
CCCCCCCCCCCCOc1ccc(S(=O)(=O)c2cnc3ccc([S+](C)[O-])cc3c2N2CCC(N3CCC(N4CCN(C)CC4)CC3)CC2)cc1 (stereo not drawn) [compound 341, 3-((4-(dodecyloxy)phenyl)sulfonyl)-4-(4-(4-methylpiperazin-1-yl)-[1,4′-bipiperidin]-1′-yl)-6-(methylsulfinyl)quinoline]	*** (100% of endothelial cells vesicularize in cell shape)
CCCCCCCCCCCCCCOc1ccc(S(=O)(=O)c2cnc3ccc([S+](C)[O-])cc3c2N2CCC(N3CCC(N4CCC(O)CC4)CC3)CC2)cc1 (stereo not drawn) [compound 375, 1″-(6-(methylsulfinyl)-3-((4-(tetradecyloxy)phenyl)sulfonyl)quinolin-4-yl)-[1,4′:1′,4″-terpiperidin]-4-ol]	* (50% or less of cells vesicularize in cell shape)
CCCCCCCCCCCCOc1ccc(S(=O)(=O)c2cnc3ccc([S+](C)[O-])cc3c2N2CCC(N3CCC(N4CCCCC4)CC3)CC2)cc1F (stereo not drawn) [compound 363, 4-([1,4′:1′,4″-terpiperidin]-1″-yl)-3-((4-(dodecyloxy)-3-fluorophenyl)sulfonyl)-6-(methylsulfinyl)quinoline]	*** (100% of endothelial cells vesicularize in cell shape)
CCCCCCCCCCCCCCOc1ccc(S(=O)(=O)c2cnc3ccc([S+](C)[O-])cc3c2N2CCC(N3CCN(CCO)CC3)CC2)cc1F (stereo not drawn) [compound 365, 2-(4-(1-(3-((3-fluoro-4-(tetradecyloxy)phenyl)sulfonyl)-6-(methylsulfinyl)quinolin-4-yl)piperidin-4-yl)piperazin-1-yl)ethanol]	*** (100% of endothelial cells vesicularize in cell shape)
CCCCCCCOc1ccc(S(=O)(=O)c2cnc3ccc(SC)cc3c2N2CCC(N3CCN(C)CC3)CC2)cc1 [compound 246, 3-((4-(heptyloxy)phenyl)sulfonyl)-4-(4-(4-methylpiperazin-1-yl)piperidin-1-yl)-6-(methylthio)quinoline]	*** (100% of endothelial cells vesicularize in cell shape)
CCCCCCCCCCCCOc1ccc(S(=O)(=O)c2cnc3ccc([S+](C)[O-])cc3c2N2CCC(N3CCN(CCO)CC3)CC2)cc1 (stereo not drawn) [compound 339, 2-(4-(1-(3-((4-(dodecyloxy)phenyl)sulfonyl)-6-(methylsulfinyl)quinolin-4-yl)piperidin-4-yl)piperazin-1-yl)ethan-1-ol]	** (more than 50% but less than 100% of endothelial cells vesicularize in cell shape)
CCCCCCCCCCCCCCOc1ccc(S(=O)(=O)c2cnc3ccc([S+](C)[O-])cc3c2N2CCC(N3CCC(N4CCN(CCO)CC4)CC3)CC2)cc1F (stereo not drawn) [compound 369, 2-(4-(1′-(3-((3-fluoro-4-(tetradecyloxy)phenyl)sulfonyl)-6-(methylsulfinyl)quinolin-4-yl)-[1,4′-bipiperidin]-4-yl)piperazin-1-yl)ethanol]	* (50% or less of cells vesicularize in cell shape)

Same assay, conditions: Conc. 40 μm

Compound	48 hrs (morphology observations after 48 hours)
COc1ccc(S(=O)(=O)c2cnc3cc(OC)c(OC)cc3c2N2CCCN(CC3(O)CCCC3)CC2)cc1 [compound 325, 1-((4-(6,7-dimethoxy-3-((4-methoxyphenyl)sulfonyl)quinolin-4-yl)-1,4-diazepan-1-yl)methyl)cyclopentan-1-ol]	* (50% or less of cells vesicularize in cell shape)
CCOC(=O)c1ccc2ncc(S(=O)(=O)c3ccc(OC)cc3)c(N3CCC(N4CCCCCC4)CC3)c2c1 [compound 173, ethyl 4-(4-(azepan-1-yl)piperidin-1-yl)-3-((4-methoxyphenyl)sulfonyl)quinoline-6-carboxylate]	** (more than 50% but less than 100% of endothelial cells vesicularize in cell shape)
CCCCOc1ccc(S(=O)(=O)c2cnc3ccc(SC)cc3c2N2CCC(N3CCN(CCO)CC3)CC2)cc1 [compound 230, 2-(4-(1-(3-((4-butoxyphenyl)sulfonyl)-6-(methylthio)quinolin-4-yl)piperidin-4-yl)piperazin-1-yl)ethan-1-ol]	*** (100% of endothelial cells vesicularize in cell shape)
